Patent publication US10335403B2, “Niacin formulation” (Zeenar Enterprises Pty Ltd., priority 2013, dated 2019)
At least one structure is not confirmed: it was looked up by name or label, or the drawing left a doubt.

Experiment: Encapsulating pravastatin in Myverol self-assembled liquid crystalline phase
Assay type: physicochemical
Details: up to the experimental limit of 80% pravastatin

CC[C@H](C)C(=O)O[C@H]1C[C@H](O)C=C2C=C[C@H](C)[C@H](CC[C@@H](O)C[C@@H](O)CC(=O)O)[C@H]21 [Pravastatin, pravastatin]
incorporation of pravastatin into Myverol: no visible precipitation
